PubChem BioAssay AID652259, Drosophila RNAi Screening Center | 2013
Aim: 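Genome-wide hunt for genes that control Wingless pathway activity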 (primary screen). Cells: Drosophila clone 8 imaginal disc epithelial cells. Reagent: long dsRNA against Drosophila genes. Challenge: pathway stimulated by co-transfected Wingless expression plasmid. Measurement: 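Firefly luciferase from a tcf-site Wingless reporter, measured alongside co-transfected Renilla luciferase that tracks transfection; pathway stimulated by a Wingless plasmid; the firefly-to-Renilla ratio is not deposited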. Direction: firefly reporter light: higher = more Wg reporter light, before normalisation; Renilla control light: higher = more transfected or surviving cells. Call rule: 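a knock-down is a candidate when at least two out of four statistical tests show it departing from its plate mean; one test alone signals a weak candidate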. Calls: active = candidate regulator (raises or lowers reporter); inactive = not a candidate.
The deposit covers about 22,000 reagents; below is a random part of those that have a named target and a result. Over the whole deposit, 233 (1.1%) were called active. 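Light values are raw, unnormalised plate reads; the ratio scores behind the reporter calls were not deposited.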 Names joined by + are all predicted targets of the reagent. Not given: the amount of reagent, the time to read-out, the dose of the treatment.

For CG4835 [DRSC10452], the values are firefly reporter light, replicate 1 = 1120; firefly reporter light, replicate 2 = 5516; Renilla control light, replicate 1 = 692; Renilla control light, replicate 2 = 2412; inactive.
For CG15020 [DRSC08474], the entry reads firefly reporter light, replicate 1 = 1431; firefly reporter light, replicate 2 = 6608; Renilla control light, replicate 1 = 1293; Renilla control light, replicate 2 = 2864; inactive.
For Faa [DRSC08451], the values are firefly reporter light, replicate 1 = 5453; Renilla control light, replicate 1 = 2338; inactive.
CG10602 [DRSC02075] showed firefly reporter light, replicate 1 = 8032; Renilla control light, replicate 1 = 2114; inactive.
Silencing of CG9014 [DRSC01979] resulted in: firefly reporter light, replicate 1 = 3021; firefly reporter light, replicate 2 = 9850; Renilla control light, replicate 1 = 1537; Renilla control light, replicate 2 = 4674; inactive.
With knock-down of CG7907 [DRSC16339], the record shows reporter change call, replicate 1 = Wg reporter activity lowered; firefly reporter light, replicate 1 = 40838; Renilla control light, replicate 1 = 7893; inactive.
With knock-down of botv [DRSC05949], the screen gave firefly reporter light, replicate 1 = 18422; Renilla control light, replicate 1 = 5126; inactive.
For PIG-B [DRSC08216], the values are firefly reporter light, replicate 1 = 7356; Renilla control light, replicate 1 = 4692; inactive.
PIG-B [DRSC22598] gave firefly reporter light, replicate 1 = 5.58e5; firefly reporter light, replicate 2 = 5.32e5; Renilla control light, replicate 1 = 1.84e5; Renilla control light, replicate 2 = 1.44e5; inactive.
After knock-down of CG12081 [DRSC17802], the record shows firefly reporter light, replicate 1 = 1353; firefly reporter light, replicate 2 = 5105; Renilla control light, replicate 1 = 736; Renilla control light, replicate 2 = 1808; inactive.
With knock-down of awd [DRSC16906] the results were firefly reporter light, replicate 1 = 23649; Renilla control light, replicate 1 = 14481; inactive.
Knock-down of CG17768 + LSm-4 [DRSC02845] gave: firefly reporter light, replicate 1 = 2528; firefly reporter light, replicate 2 = 6467; Renilla control light, replicate 1 = 632; Renilla control light, replicate 2 = 2560; inactive.
With knock-down of Notum [DRSC09959], the record shows firefly reporter light, replicate 1 = 7477; Renilla control light, replicate 1 = 3037; inactive.
Knock-down of CG15641 [DRSC19677] resulted in: firefly reporter light, replicate 1 = 16992; Renilla control light, replicate 1 = 7201; inactive.
With knock-down of sunz [DRSC12559] the results were firefly reporter light, replicate 1 = 9036; Renilla control light, replicate 1 = 2356; inactive.
With knock-down of kay [DRSC13962] the results were firefly reporter light, replicate 1 = 4757; Renilla control light, replicate 1 = 1728; inactive.
For kay [DRSC15048], the entry reads firefly reporter light, replicate 1 = 6224; Renilla control light, replicate 1 = 697; inactive.
kay [DRSC16977] showed firefly reporter light, replicate 1 = 2396; firefly reporter light, replicate 2 = 4960; Renilla control light, replicate 1 = 672; Renilla control light, replicate 2 = 967; inactive.
Cyp28d1 [DRSC03298] showed firefly reporter light, replicate 1 = 14836; Renilla control light, replicate 1 = 6512; inactive.
Cyp28d1 [DRSC21331] showed firefly reporter light, replicate 1 = 6.69e5; firefly reporter light, replicate 2 = 7.65e5; Renilla control light, replicate 1 = 5.79e5; Renilla control light, replicate 2 = 3.39e5; inactive.
After knock-down of CG14439 [DRSC17931], the record shows firefly reporter light, replicate 1 = 16464; Renilla control light, replicate 1 = 9522; inactive.
For dpr20 [DRSC08265], the values are firefly reporter light, replicate 1 = 13635; Renilla control light, replicate 1 = 4348; inactive.
With knock-down of BomS6 [DRSC21676] the results were firefly reporter light, replicate 1 = 7.85e5; firefly reporter light, replicate 2 = 7.90e5; Renilla control light, replicate 1 = 3.76e5; Renilla control light, replicate 2 = 3.13e5; inactive.
For Sox15 [DRSC07555], the values are firefly reporter light, replicate 1 = 5243; Renilla control light, replicate 1 = 2009; inactive.
Against CG1138 [DRSC12530], the values are firefly reporter light, replicate 1 = 4560; Renilla control light, replicate 1 = 1768; inactive.
